# The other results are listed elsewhere or left out. Further columns of the screen follow, without active or inactive calls. Most of these compounds were active or inconclusive in the main read-out, so they are no random draw. Potencies come from curve fits of mixed quality, noted in brackets.
# Test: qHTS Assay to Find Inhibitors of Chronic Active B-Cell Receptor Signaling
# Settings: ABC-DLBCL IkBa-CBG/CBR reporter, luminescence ratio (green luciferase fused to IkBa over red control in TMD8 lymphoma cells), 4 h; measured here: CBR red luminescence, cell number
# Procedure, shortened: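 TMD8 ABC-DLBCL cells carrying doxycycline-inducible green luciferase fused to IkappaBalpha plus unfused red luciferase were exposed to compounds (up to 46 uM) for 4 hrs at 37C. Activity came from the overlap-corrected green/red luminescence ratio.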
row,SMILES,AC50
1,COc1ccc(CCN(C)C(=O)Cc2ccc(-c3ccccc3)cc2)cc1OC,"0.447 µM [rising, full curve, poor fit]"
2,Cc1cc(=O)[nH]c(Nc2cccc(F)c2)n1,"25.1 µM [rising, single point]"
3,COC(=O)C(C)N1C(=O)S/C(=C\c2ccc(-c3ccc(C(=O)O)cc3C)o2)C1=O (configuration not stated),"5.62 µM [rising, single point]"
4,CC(=O)Nc1ccc(S(=O)(=O)NCCC(=O)NCCOc2ccccc2)cc1,"23.1 µM [rising, single point]"
5,O=C(ONc1ccc(N=NC(=O)c2ccccc2O)cc1)c1ccccc1,"0.206 µM [falling, full curve]"
6,CCOC(=O)c1nn(-c2cccc(OC)c2)c2nc(Nc3ccccc3)cc(=O)n12,"25.9 µM [falling, single point]"
7,O=C(NCc1cccnc1)c1ccc(NC(=O)c2cccc([N+](=O)[O-])c2)cc1,"3.55 µM [rising, single point]"
8,COc1ccc(OC)c(NC(=O)CSc2ccc3ccccc3c2)c1,"12.6 µM [falling, single point]"
9,Cc1cccc(OCCNc2nc3c(c(=O)n(C)c(=O)n3C)n2C)c1,"0.0891 µM [falling, full curve, poor fit]"
10,O=C(NC(=S)Nc1ccccc1N1CCOCC1)c1ccco1,"0.58 µM [rising, full curve, poor fit]"
11,CCOc1ccc(-c2cc(C)n3nc(C(N)=O)cc3n2)cc1,"6.51 µM [rising, single point]"
12,Oc1ccc(-c2csc(-c3c[nH]c4ccccc34)n2)c(O)c1,"23.1 µM [falling, single point]"
13,Cc1ccc(NC(=O)c2ccccc2OCC(=O)c2ccccc2)cc1,"5.17 µM [falling, full curve, poor fit]"
14,S=C1NC(c2ccccc2)=NCN1c1ccc(Br)cc1,"0.92 µM [rising, full curve, poor fit]"
15,CCCSc1nnc(CNC(=O)C23CC4CC(CC(C4)C2)C3)n1Cc1ccccc1,"29.1 µM [falling, single point]"
16,O=C(C1CC(c2ccccc2O)=NO1)N1CCc2ccccc2C1 (configuration not stated),"7.31 µM [falling, partial curve, poor fit]"
17,Cc1nc2ccccc2nc(=O)c1NNc1ccccc1,"2.06 µM [falling, full curve]"
18,Oc1ccc2ccccc2c1N=Nc1ccccn1,"3.98 µM [rising, full curve, poor fit]"
19,O=C(CCN1C(=O)C2CCCCC2C1=O)N1CCN(S(=O)(=O)c2c(F)cccc2F)CC1 (configuration not stated),"1.46 µM [rising, full curve, poor fit]"
20,COc1ccc(CSCC(=O)NN=C2CCN(C)CC2)cc1,"14.1 µM [rising, partial curve, poor fit]"
21,COc1ccc(Cn2c(O)c(C=Nc3ccccc3C(=O)O)c3ccccc3c2=O)cc1,"6.31 µM [falling, partial curve, poor fit]"

row,SMILES,AC50
1,Cc1cc(C(=O)Nc2ccccc2)oc(=O)c1,"14.1 µM [falling, single point]"
2,O=C1NCN(c2ccccc2)C12CCN(CCCC(c1ccc(F)cc1)c1ccc(F)cc1)CC2,"17.8 µM [falling, single point]"
3,CN(C)CCN1CC(O)=C(c2nc3ccccc3s2)C1=N,"0.631 µM [rising, full curve, poor fit]"
4,O=C(CSc1nc2ccccc2c(=O)n1-c1ccccc1)NCC1CCCO1 (configuration not stated),"6.31 µM [rising, full curve, poor fit]"
5,CC(C)C1NC(C(=O)O)Cc2c1[nH]c1ccccc21 (configuration not stated),"35.5 µM [falling, single point]"
6,O=S(=O)(c1ccccc1)N1CCSC1c1ccco1 (configuration not stated),"6.51 µM [falling, single point]"
7,CC(C)OCCCn1c(=NC(=O)c2cccs2)c(C#N)cc2c(=O)n3ccccc3nc21,"14.1 µM [falling, single point]"
8,O=C(c1cccc(C(=O)N2CCN(c3ccccc3F)CC2)c1)N1CCN(c2ccccc2F)CC1,"29.1 µM [rising, single point]"
9,O=C(CCC1N=C2c3ccccc3N=C(SCc3ccc(F)cc3)N2C1=O)NCCc1ccccc1 (configuration not stated),"12.6 µM [falling, single point]"
10,Cc1ccc(C(=O)N/N=c2\sc3ccccc3n2C)cc1,"5.17 µM [falling, partial curve, poor fit]"
11,CCOC(=O)C1(Cc2cccc(Cl)c2)CCCN(C(=O)CCOC)C1 (configuration not stated),"0.447 µM [rising, full curve, poor fit]"
12,CC12Cc3ccc4ccccc4c3C=C1C[N+](C)(C)C2 (configuration not stated),"0.651 µM [falling, full curve]"
13,Cc1cc(C)nc(NC(=O)CCC2CCCC2)c1,"14.6 µM [falling, single point]"
14,Nc1cccc2c1C(=O)N(C(=O)/C=C/c1cccc(Br)c1)C2=O,"35.5 µM [falling, single point]"
15,CC(C)NC(=S)N/N=C/c1sc(N2CCCCC2)nc1-c1cccs1,"6.51 µM [rising, single point]"
16,Cc1ccc2ncnc(NCCCCCC(=O)O)c2c1,"31.6 µM [rising, single point]"
17,CN(Cc1ccccc1)C(=O)c1c[nH]c2ccc(S(=O)(=O)N3CCOCC3)cc2c1=O,"29.1 µM [rising, single point]"
18,CCOc1cc(C(=O)OC(C(=O)NC(=O)NC)c2ccccc2)ccc1OCC(=O)N1CCOCC1 (configuration not stated),"5.8 µM [rising, full curve, poor fit]"
19,COc1ccc(OC)c(C2=NOC(C(=O)N3CCN(c4ccccc4)CC3)C2)c1 (configuration not stated),"29.1 µM [rising, partial curve, poor fit]"
20,CCOC(=O)c1c(NC(=O)CN2C(=O)NC(C)(c3ccc(OC(F)F)cc3)C2=O)sc(C)c1C (configuration not stated),"14.6 µM [falling, single point]"
21,CCOC(=O)N=S(=O)(Oc1ccc([N+](=O)[O-])cc1)c1ccc(Cl)cc1 (configuration not stated),"29.1 µM [falling, single point]"

# 3 records drawn at random from the list so far, as already listed:
row,SMILES,AC50
2,O=C1NCN(c2ccccc2)C12CCN(CCCC(c1ccc(F)cc1)c1ccc(F)cc1)CC2,"17.8 µM [falling, single point]"
16,Cc1ccc2ncnc(NCCCCCC(=O)O)c2c1,"31.6 µM [rising, single point]"
13,Cc1cc(C)nc(NC(=O)CCC2CCCC2)c1,"14.6 µM [falling, single point]"
